Results: paper PMC12579238
These are yes or no findings as the source states them, for the method shown. Binding seen in cells or lysates may run through a third protein. These calls come from enrichment with a bait or labelling near it, and not all partners need be listed.

T1: CLN7 (human (endogenous in SH-SY5Y)) (UniProt Q8NHS3)
T1 sequence: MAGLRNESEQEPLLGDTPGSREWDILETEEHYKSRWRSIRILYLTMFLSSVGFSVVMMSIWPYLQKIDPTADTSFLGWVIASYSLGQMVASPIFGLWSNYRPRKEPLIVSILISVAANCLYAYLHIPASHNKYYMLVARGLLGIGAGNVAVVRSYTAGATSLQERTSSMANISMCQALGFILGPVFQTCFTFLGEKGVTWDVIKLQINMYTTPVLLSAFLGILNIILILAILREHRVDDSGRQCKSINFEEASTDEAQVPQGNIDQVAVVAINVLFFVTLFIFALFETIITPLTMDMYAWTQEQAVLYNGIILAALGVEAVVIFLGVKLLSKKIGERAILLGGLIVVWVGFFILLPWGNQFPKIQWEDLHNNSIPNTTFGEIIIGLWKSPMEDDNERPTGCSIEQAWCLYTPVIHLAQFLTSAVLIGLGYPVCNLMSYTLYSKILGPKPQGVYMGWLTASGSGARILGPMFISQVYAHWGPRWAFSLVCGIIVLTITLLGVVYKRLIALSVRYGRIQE


Biological target: T1, CLN7 (human (endogenous in SH-SY5Y))
Assay: affinity purification with mass spectrometry; endogenous CLN7 immunoprecipitated from 2.5 mg SH-SY5Y lysate with a polyclonal anti-CLN7 antibody raised against L9 (351-421aa, Proteintech) on G-sepharose beads; IgG as non-specific binding control; 4 independent replicates; cells under steady state culture conditions

| Binder | binding |
| --- | --- |
| SMARCAL1 (protein, UniProt Q9NZC9 1-954) MSLPLTEEQRKKIEENRQKALARRAEKLLAEQHQRTSSGTSIAGNPFQAKQGPSQNFPRESCKPVSHGVIFKQQNLSSSSNADQRPHDSHSFQAKGIWKKPEEMPTACPGHSPRSQMALTGISPPLAQSPPEVPKQQLLSYELGQGHAQASPEIRFTPFANPTHKPLAKPKSSQETPAHSSGQPPRDAKLEAKTAKASPSGQNISYIHSSSESVTPRTEGRLQQKSGSSVQKGVNSQKGKCVRNGDRFQVLIGYNAELIAVFKTLPSKNYDPDTKTWNFSMNDYSALMKAAQSLPTVNLQPLEWAYGSSESPSTSSEGQAGLPSAPSLSFVKGRCMLISRAYFEADISYSQDLIALFKQMDSRRYDVKTRKWSFLLEEHSKLIAKVRCLPQVQLDPLPTTLTLAFASQLKKTSLSLTPDVPEADLSEVDPKLVSNLMPFQRAGVNFAIAKGGRLLLADDMGLGKTIQAICIAAFYRKEWPLLVVVPSSVRFTWEQAFLRWLPSLSPDCINVVVTGKDRLTAGLINIVSFDLLSKLEKQLKTPFKVVIIDESHFLKNSRTARCRAAMPVLKVAKRVILLSGTPAMSRPAELYTQIIAVKPTFFPQFHAFGLRYCDAKRMPWGWDYSGSSNLGELKLLLEEAVMLRRLKSDVLSQLPAKQRKIVVIAPGRINARTRAALDAAAKEMTTKDKTKQQQKDALILFFNRTAEAKIPSVIEYILDLLESGREKFLVFAHHKVVLDAITQELERKHVQHIRIDGSTSSAEREDLCQQFQLSERHAVAVLSITAANMGLTFSSADLVVFAELFWNPGVLIQAEDRVHRIGQTSSVGIHYLVAKGTADDYLWPLIQEKIKVLAEAGLSETNFSEMTESTDYLYKDPKQQKIYDLFQKSFEKEGSDMELLEAAESFDPGSASGTSGSSSQNMGDTLDESSLTASPQKKRRFEFFDNWDSFTSPL | binds |
| SMC6 (protein, UniProt Q96SB8 1-1091) MAKRKEENFSSPKNAKRPRQEELEDFDKDGDEDECKGTTLTAAEVGIIESIHLKNFMCHSMLGPFKFGSNVNFVVGNNGSGKSAVLTALIVGLGGRAVATNRGSSLKGFVKDGQNSADISITLRNRGDDAFKASVYGNSILIQQHISIDGSRSYKLKSATGSVVSTRKEELIAILDHFNIQVDNPVSVLTQEMSKQFLQSKNEGDKYKFFMKATQLEQMKEDYSYIMETKERTKEQIHQGEERLTELKRQCVEKEERFQSIAGLSTMKTNLESLKHEMAWAVVNEIEKQLNAIRDNIKIGEDRAARLDRKMEEQQVRLNEAEQKYKDIQDKLEKISEETNARAPECMALKADVVAKKRAYNEAEVLYNRSLNEYKALKKDDEQLCKRIEELKKSTDQSLEPERLERQKKISWLKERVKAFQNQENSVNQEIEQFQQAIEKDKEEHGKIKREELDVKHALSYNQRQLKELKDSKTDRLKRFGPNVPALLEAIDDAYRQGHFTYKPVGPLGACIHLRDPELALAIESCLKGLLQAYCCHNHADERVLQALMKRFYLPGTSRPPIIVSEFRNEIYDVRHRAAYHPDFPTVLTALEIDNAVVANSLIDMRGIETVLLIKNNSVARAVMQSQKPPKNCREAFTADGDQVFAGRYYSSENTRPKFLSRDVDSEISDLENEVENKTAQILNLQQHLSALEKDIKHNEELLKRCQLHYKELKMKIRKNISEIRELENIEEHQSVDIATLEDEAQENKSKMKMVEEHMEQQKENMEHLKSLKIEAENKYDAIKFKINQLSELADPLKDELNLADSEVDNQKRGKRHYEEKQKEHLDTLNKKKRELDMKEKELEEKMSQARQICPERIEVEKSASILDKEINRLRQKIQAEHASHGDREEIMRQYQEARETYLDLDSKVRTLKKFIKLLGEIMEHRFKTYQQFRRCLTLRCKLYFDNLLSQRAYCGKMNFDHKNETLSISVQPGEGNKAAFNDMRALSGGERSFSTVCFILSLWSIAESPFRCLDEFDVYMDMVNRRIAMDLILKMADSQRFRQFILLTPQSMSSLPSSKLIRILRMSDPERGQTTLPFRPVTQEEDDDQR | binds |
| SPATA5 (protein, UniProt Q8NB90 1-893) MSSKKNRKRLNQSAENGSSLPSAASSCAEARAPSAGSDFAATSGTLTVTNLLEKVDDKIPKTFQNSLIHLGLNTMKSANICIGRPVLLTSLNGKQEVYTAWPMAGFPGGKVGLSEMAQKNVGVRPGDAIQVQPLVGAVLQAEEMDVALSDKDMEINEEELTGCILRKLDGKIVLPGNFLYCTFYGRPYKLQVLRVKGADGMILGGPQSDSDTDAQRMAFEQSSMETSSLELSLQLSQLDLEDTQIPTSRSTPYKPIDDRITNKASDVLLDVTQSPGDGSGLMLEEVTGLKCNFESAREGNEQLTEEERLLKFSIGAKCNTDTFYFISSTTRVNFTEIDKNSKEQDNQFKVTYDMIGGLSSQLKAIREIIELPLKQPELFKSYGIPAPRGVLLYGPPGTGKTMIARAVANEVGAYVSVINGPEIISKFYGETEAKLRQIFAEATLRHPSIIFIDELDALCPKREGAQNEVEKRVVASLLTLMDGIGSEVSEGQVLVLGATNRPHALDAALRRPGRFDKEIEIGVPNAQDRLDILQKLLRRVPHLLTEAELLQLANSAHGYVGADLKVLCNEAGLCALRRILKKQPNLPDVKVAGLVKITLKDFLQAMNDIRPSAMREIAIDVPNVSWSDIGGLESIKLKLEQAVEWPLKHPESFIRMGIQPPKGVLLYGPPGCSKTMIAKALANESGLNFLAIKGPELMNKYVGESERAVRETFRKARAVAPSIIFFDELDALAVERGSSLGAGNVADRVLAQLLTEMDGIEQLKDVTILAATNRPDRIDKALMRPGRIDRIIYVPLPDAATRREIFKLQFHSMPVSNEVDLDELILQTDAYSGAEIVAVCREAALLALEEDIQANLIMKRHFTQALSTVTPRIPESLRRFYEDYQEKSGLHTL | binds |
| SPATA5L1 (protein, UniProt Q9BVQ7 1-753) MAPDSDPFPEGPLLKLLPLDARDRGTQRCRLGPAALHALGARLGSAVKISLPDGGSCLCTAWPRRDGADGFVQLDPLCASPGAAVGASRSRRSLSLNRLLLVPCPPLRRVAVWPVLRERAGAPGARNTAAVLEAAQELLRNRPISLGHVVVAPPGAPGLVAALHIVGGTPSPDPAGLVTPRTRVSLGGEPPSEAQPQPEVPLGGLSEAADSLRELLRLPLRYPRALTALGLAVPRGVLLAGPPGVGKTQLVRAVAREAGAELLAVSAPALQGSRPGETEENVRRVFQRARELASRGPSLLFLDEMDALCPQRGSRAPESRVVAQVLTLLDGASGDREVVVVGATNRPDALDPALRRPGRFDREVVIGTPTLKQRKEILQVITSKMPISSHVDLGLLAEMTVGYVGADLTALCREAAMHALLHSEKNQDNPVIDEIDFLEAFKNIQPSSFRSVIGLMDIKPVDWEEIGGLEDVKLKLKQSIEWPLKFPWEFVRMGLTQPKGVLLYGPPGCAKTTLVRALATSCHCSFVSVSGADLFSPFVGDSEKVLSQIFRQARASTPAILFLDEIDSILGARSASKTGCDVQERVLSVLLNELDGVGLKTIERRGSKSSQQEFQEVFNRSVMIIAATNRPDVLDTALLRPGRLDKIIYIPPPDHKGRLSILKVCTKTMPIGPDVSLENLAAETCFFSGADLRNLCTEAALLALQENGLDATTVKQEHFLKSLKTVKPSLSCKDLALYENLFKKEGFSNVEGI | binds |
| TBL3 (protein, UniProt Q12788 1-808) MAETAAGVGRFKTNYAVERKIEPFYKGGKAQLDQTGQHLFCVCGTRVNILEVASGAVLRSLEQEDQEDITAFDLSPDNEVLVTASRALLLAQWAWQEGSVTRLWKAIHTAPVATMAFDPTSTLLATGGCDGAVRVWDIVRHYGTHHFRGSPGVVHLVAFHPDPTRLLLFSSATDAAIRVWSLQDRSCLAVLTAHYSAVTSLAFSADGHTMLSSGRDKICIIWDLQSCQATRTVPVFESVEAAVLLPEEPVSQLGVKSPGLYFLTAGDQGTLRVWEAASGQCVYTQAQPPGPGQELTHCTLAHTAGVVLTATADHNLLLYEARSLRLQKQFAGYSEEVLDVRFLGPEDSHVVVASNSPCLKVFELQTSACQILHGHTDIVLALDVFRKGWLFASCAKDQSVRIWRMNKAGQVMCVAQGSGHTHSVGTVCCSRLKESFLVTGSQDCTVKLWPLPKALLSKNTAPDNGPILLQAQTTQRCHDKDINSVAIAPNDKLLATGSQDRTAKLWALPQCQLLGVFSGHRRGLWCVQFSPMDQVLATASADGTIKLWALQDFSCLKTFEGHDASVLKVAFVSRGTQLLSSGSDGLVKLWTIKNNECVRTLDAHEDKVWGLHCSRLDDHALTGASDSRVILWKDVTEAEQAEEQARQEEQVVRQQELDNLLHEKRYLRALGLAISLDRPHTVLTVIQAIRRDPEACEKLEATMLRLRRDQKEALLRFCVTWNTNSRHCHEAQAVLGVLLRREAPEELLAYEGVRAALEALLPYTERHFQRLSRTLQAAAFLDFLWHNMKLPVPAAAPTPWETHKGALP | binds |
| TOP3B (protein, UniProt O95985 1-862) MKTVLMVAEKPSLAQSIAKILSRGSLSSHKGLNGACSVHEYTGTFAGQPVRFKMTSVCGHVMTLDFLGKYNKWDKVDPAELFSQAPTEKKEANPKLNMVKFLQVEGRGCDYIVLWLDCDKEGENICFEVLDAVLPVMNKAHGGEKTVFRARFSSITDTDICNAMACLGEPDHNEALSVDARQELDLRIGCAFTRFQTKYFQGKYGDLDSSLISFGPCQTPTLGFCVERHDKIQSFKPETYWVLQAKVNTDKDRSLLLDWDRVRVFDREIAQMFLNMTKLEKEAQVEATSRKEKAKQRPLALNTVEMLRVASSSLGMGPQHAMQTAERLYTQGYISYPRTETTHYPENFDLKGSLRQQANHPYWADTVKRLLAEGINRPRKGHDAGDHPPITPMKSATEAELGGDAWRLYEYITRHFIATVSHDCKYLQSTISFRIGPELFTCSGKTVLSPGFTEVMPWQSVPLEESLPTCQRGDAFPVGEVKMLEKQTNPPDYLTEAELITLMEKHGIGTDASIPVHINNICQRNYVTVESGRRLKPTNLGIVLVHGYYKIDAELVLPTIRSAVEKQLNLIAQGKADYRQVLGHTLDVFKRKFHYFVDSIAGMDELMEVSFSPLAATGKPLSRCGKCHRFMKYIQAKPSRLHCSHCDETYTLPQNGTIKLYKELRCPLDDFELVLWSSGSRGKSYPLCPYCYNHPPFRDMKKGMGCNECTHPSCQHSLSMLGIGQCVECESGVLVLDPTSGPKWKVACNKCNVVAHCFENAHRVRVSADTCSVCEAALLDVDFNKAKSPLPGDETQHMGCVFCDPVFQELVELKHAASCHPMHRGGPGRRQGRGRGRARRPPGKPNPRRPKDKMSALAAYFV | binds |
